The chains are these.
B1: wild type murine B7-DC-Ig (Fc fusion)
chain: LFTVTAPKEVYTVDVGSSVSLECDFDRRECTELEGIRASLQKVENDTSLQSERATLLEEQLPLGKALFHIPSVQVRDSGQYRCLVICGAAWDYKYLTVKVKASYMRIDTRILEVPGTGEVQLTCQARGYPLAEVSWQNVSVPANTSHIRTPEGLYQVTSVLRLKPQPSRNFSCMFWNAHMKELTSAIIDPLSRMEPKVPRTWEPRGPTIKPCPPCKCPAPNLLGGPSVFIFPPKIKDVLMISLSPIVTCVVVDVSEDDPDVQISWFVNNVEVHTAQTQTHREDYNSTLRVVSALPIQHQDWMSGKEFKCKVNNKDLPAPIERTISKPKGSVRAPQVYVLPPPEEEMTKKQVTLTCMVTDFMPEDIYVEWTNNGKTELNYKNTEPVLDSDGSYFMYSKLRVEKKNWVERNSYSCSVVHEGLHNHHTTKSFSRTPGK
B2: murine B7-DC-Ig with the D111S substitution (Fc fusion)
chain: LFTVTAPKEVYTVDVGSSVSLECDFDRRECTELEGIRASLQKVENDTSLQSERATLLEEQLPLGKALFHIPSVQVRDSGQYRCLVICGAAWSYKYLTVKVKASYMRIDTRILEVPGTGEVQLTCQARGYPLAEVSWQNVSVPANTSHIRTPEGLYQVTSVLRLKPQPSRNFSCMFWNAHMKELTSAIIDPLSRMEPKVPRTWEPRGPTIKPCPPCKCPAPNLLGGPSVFIFPPKIKDVLMISLSPIVTCVVVDVSEDDPDVQISWFVNNVEVHTAQTQTHREDYNSTLRVVSALPIQHQDWMSGKEFKCKVNNKDLPAPIERTISKPKGSVRAPQVYVLPPPEEEMTKKQVTLTCMVTDFMPEDIYVEWTNNGKTELNYKNTEPVLDSDGSYFMYSKLRVEKKNWVERNSYSCSVVHEGLHNHHTTKSFSRTPGK
B3: murine B7-DC-Ig with the K113S substitution (Fc fusion)
chain: LFTVTAPKEVYTVDVGSSVSLECDFDRRECTELEGIRASLQKVENDTSLQSERATLLEEQLPLGKALFHIPSVQVRDSGQYRCLVICGAAWDYSYLTVKVKASYMRIDTRILEVPGTGEVQLTCQARGYPLAEVSWQNVSVPANTSHIRTPEGLYQVTSVLRLKPQPSRNFSCMFWNAHMKELTSAIIDPLSRMEPKVPRTWEPRGPTIKPCPPCKCPAPNLLGGPSVFIFPPKIKDVLMISLSPIVTCVVVDVSEDDPDVQISWFVNNVEVHTAQTQTHREDYNSTLRVVSALPIQHQDWMSGKEFKCKVNNKDLPAPIERTISKPKGSVRAPQVYVLPPPEEEMTKKQVTLTCMVTDFMPEDIYVEWTNNGKTELNYKNTEPVLDSDGSYFMYSKLRVEKKNWVERNSYSCSVVHEGLHNHHTTKSFSRTPGK

By UniProt entry, the sequences of proteins in these tests, tags left out. Residues count along the entry.
UniProt Q02242, residues 25-167: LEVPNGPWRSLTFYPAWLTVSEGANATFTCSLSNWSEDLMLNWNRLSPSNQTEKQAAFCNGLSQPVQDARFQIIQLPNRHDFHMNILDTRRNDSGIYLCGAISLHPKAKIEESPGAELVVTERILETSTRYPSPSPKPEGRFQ

No constants are given. Whether binding was seen depends on the method and setting. Some binding calls cover weakened binding; strength is not graded here.

This assay addresses recombinant mouse PD-1/Fc (R&D Systems) (mouse) (UniProt Q02242). In words: ELISA, plate coated with recombinant mouse PD-1/Fc. For orientation: In an ELISA, binding on a coated surface is turned into a signal by an enzyme label.
With B1, the binding result is “binds”.
As for B2, the entry is “binds”.
B3: the binding result is reported as “binds”.

The values are drawn from patent US20140227262A1, “PD-1 Antagonists and Methods for Treating Infectious Disease” (AMPLIMMUNE, INC., priority 2008, published 2014).
